Source: the supplement of paper PMC3334620
In all, about 33,000 sequences were measured (“E-score (-0.5 to 0.5)”: median about -0.016, highest 2% from about 0.3 on). The list shows a part of the results.

Each sequence was assayed against T1, Yer184c (UniProt P39961) (assay: PBM E-score (8-mer binding enrichment) (E-score (-0.5 to 0.5)); higher = stronger / more preferred TF binding). Settings: protein concentration: 100 nM; construct: GST-full length.
T1 sequence: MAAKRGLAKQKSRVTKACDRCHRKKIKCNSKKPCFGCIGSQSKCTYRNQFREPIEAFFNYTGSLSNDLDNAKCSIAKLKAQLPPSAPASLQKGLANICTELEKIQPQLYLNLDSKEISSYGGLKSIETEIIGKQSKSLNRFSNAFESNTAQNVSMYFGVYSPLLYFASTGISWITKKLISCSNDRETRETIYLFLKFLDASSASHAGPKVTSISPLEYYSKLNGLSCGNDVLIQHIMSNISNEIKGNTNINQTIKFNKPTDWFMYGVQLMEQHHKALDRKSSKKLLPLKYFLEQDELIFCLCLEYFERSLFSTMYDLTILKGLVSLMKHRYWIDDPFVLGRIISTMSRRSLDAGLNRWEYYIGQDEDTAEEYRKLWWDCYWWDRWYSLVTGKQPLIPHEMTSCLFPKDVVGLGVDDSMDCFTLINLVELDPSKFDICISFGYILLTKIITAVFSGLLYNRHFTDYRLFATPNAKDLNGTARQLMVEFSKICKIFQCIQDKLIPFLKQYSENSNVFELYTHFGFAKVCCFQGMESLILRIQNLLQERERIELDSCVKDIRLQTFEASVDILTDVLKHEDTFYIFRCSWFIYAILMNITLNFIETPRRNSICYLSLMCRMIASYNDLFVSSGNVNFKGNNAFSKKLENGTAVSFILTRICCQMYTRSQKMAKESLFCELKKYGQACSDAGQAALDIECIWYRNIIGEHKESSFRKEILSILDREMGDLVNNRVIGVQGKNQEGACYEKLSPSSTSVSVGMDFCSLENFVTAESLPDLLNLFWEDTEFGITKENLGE
In short: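 Masliner-normalised scans of fluorescent anti-GST signal were the basis for scoring. That signal came from GST-tagged yeast transcription factors applied at about 100-200 nM to double-stranded universal all-10-mer Agilent arrays on fresh or once-stripped slides. Each ungapped eight-base word, pooled with its reverse complement, received an E-score from the Universal PBM Analysis Suite.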

Point of comparison: ACATGACC, “PBM E-score” value -0.203. Against it:
- CGTAACGC — higher, 0.101
- CCCGCTTA — higher, -0.187
- GCAGCTCC — higher, -0.189
- AGGTCAAG — higher, -0.0601
- CAGCCATG — lower, -0.329
- GGTATGAA — higher, 0.0476
- GGGTTGCA — higher, -0.136
- AAGATTGC — higher, 0.0377
- CTGCGTGA — higher, -0.123
- CGGTATTC — higher, 0.226
- AAAGTTAT — higher, 0.134
- CCAGATAG — higher, 0.00026
- ATGGAGAC — higher, -0.176
- ATTATATC — higher, 0.0923
- GAGCCCAA — higher, -0.103
- CATGCACC — lower, -0.206
- CTCGAGTC — higher, -0.113
- GGCAGATA — higher, 0.114
- CCCACCGA — higher, -0.117
- CTATCTGA — higher, -0.172
- GCCGTCGC — higher, -0.0785
- ACGCTTTA — higher, -0.0723
- TAATCTGA — higher, -0.00734
- CGATTTCC — higher, 0.214
- CAGGTCAC — lower, -0.325
- AACTTGAG — higher, -0.189
- ATGTGCTA — higher, 0.0811
- AGTAACTC — higher, 0.0741
- GTCCCACA — higher, 0.00972
- CATCCACA — higher, -0.102
- CGACCATC — higher, -0.147
- ATCACGAT — higher, -0.147
- GTAGTACA — higher, -0.0299
- ACGCTAAG — lower, -0.241
- GGACAGGA — higher, -0.0567
- GTGTGAAA — higher, 0.198
- ATCGAAGG — higher, -0.0327
- GAAACTCC — higher, 0.00864
- CTTTTATC — higher, 0.073
- ATTTCGAA — higher, 0.164
- CTTGTCCC — higher, 0.161
- GGTGAAAC — higher, 0.127
- GTACGAGA — higher, -0.1
- TCAGATCA — higher, -0.00186
- AGTAAGAC — higher, 0.0443
- ACGCAGAG — higher, -0.0456
- GGTTAAGA — higher, 0.13
- CAGGCGAC — higher, -0.191
- AGTGTGGG — higher, -0.114
- AATGCTAA — higher, -0.0204
- AGCAAAGG — higher, -0.0842
- GGCGATTA — higher, 0.0843
- CGACGCTA — higher, 0.0118
- CTATATGC — higher, 0.1
- AGCCGAGG — higher, 0.336
- AATTTGAA — higher, 0.147
- CCGATAAG — higher, 0.155
- GATCTAGC — higher, -0.195
- CTAGTATC — higher, 0.113
- ACATGTTA — higher, 0.0413
- AACATACT — higher, 0.112
- TAACACCA — higher, 0.00327
- CATAAGCA — higher, -0.0964
- GCTTATAA — higher, 0.171
- ACCGCAGA — higher, -0.105
- TCTCGAGA — higher, 0.0945
- AGGTCTAT — higher, -0.173
- AGATCAAT — higher, 0.042
- AATACTCA — higher, 0.194
- ACGACAGT — higher, -0.126
- TACGCGCA — higher, 0.0925
- AGTCTGGC — higher, -0.184
- CGAACATC — higher, 0.0614
- GTCCCAGA — lower, -0.215
- AAGGCTGG — lower, -0.308
- CCCAAAAG — higher, 0.0271
- CTCACGAC — higher, -0.164
- AGTGGAGA — higher, -0.0137
- ATAGTGGC — higher, -0.153
- ATAGGGGG — lower, -0.223
- AGCCTTAG — higher, -0.00942
- AGGTGTGC — lower, -0.232
- ACATTATG — higher, 0.15
- GATTGAAA — higher, 0.112
- CCTCAGAG — lower, -0.346
- CCCGTGCA — higher, -0.0846
- TTCCCAAA — higher, 0.104
- CAACGCCA — higher, -0.147
- CATGCTGA — higher, -0.0909
- ATCCGGCC — higher, 0.358
- CTTGACAC — higher, -0.0608
- GCCCTATA — higher, -0.0877
- TAAAAAGA — higher, 0.189
- ACGTGCGC — higher, -0.00474
- AAGGAACG — higher, 0.032
- ATCATACG — higher, 0.134
- AGCCGCCG — higher, 0.277
- ATACTGAA — higher, 0.034
- AACACCTG — higher, -0.0186
- ATACGAGC — higher, 0.0989
- CATACTGG — higher, -0.0226
- GTTCTGTA — higher, 0.0334
- ACTTCAGG — higher, 0.0127
- AGAACATA — higher, 0.113
- CTTAACGC — higher, -0.0695
- ACCCCAGG — lower, -0.388
- CTGGAACC — higher, -0.0329
- AGTCAGAT — lower, -0.21
- AACCAGCT — higher, -0.101
- CGTTGACC — higher, -0.107
- GAAGCATC — higher, -0.162
- CAGCTGGC — higher, -0.0716
- CCAATGGA — higher, -0.124
- ACGACGAC — higher, -0.182
- GCTCGTCC — higher, -0.118
- GAACATCA — higher, -0.00891
- CAGTGCGC — lower, -0.318
- ATGTGTAA — higher, -0.131
- AGGCTATG — higher, -0.173
- CGTGATTA — higher, 0.164
- GAGTTAAC — higher, 0.0766
- CCAGGCGC — higher, -0.113
- CGGAATCC — higher, 0.182
- CTCGTGCA — higher, -0.0196
- CGCGATAC — higher, -0.142
- AATCCATA — higher, -0.0274
- CCACGTCG — lower, -0.205
- AGAATCAC — higher, 0.0544
- GCTTACTA — higher, 0.0742
- ACAACGGG — higher, 0.00646
- CCAGGCTA — lower, -0.312
- CGACTAGA — higher, -0.0598
- ACTCACCG — higher, -0.0284
- ACAAGAAA — higher, 0.228
- ACCAGGAC — higher, 0.00892
- AGGCGAGA — lower, -0.244
- AGAATGAG — higher, -0.0972
- CGTAGGAC — higher, -0.108
- GACACAAA — higher, 0.187
- CCTTTCTA — higher, 0.0542
- CAGGCTCG — higher, 0.0173
- TCACGTGA — higher, 0.0867
- CTAACTAC — higher, 0.0824
- GTCCCAAA — higher, -0.0356
- GCGACTCA — lower, -0.207
- GGAACAAA — higher, 0.247
- GAAAATTA — higher, 0.0819
- CATTTGAC — higher, -0.00846
- GTAGGACA — higher, 0.129
- CCGACGGA — higher, 0.257
- ACGGCAAT — higher, 0.28
- CTTGAGCA — higher, -0.144
- GCGCTCAC — higher, -0.0674
- ACAATGGG — higher, -0.0301
- AGTATAAA — higher, 0.365
- CGTCTGTA — higher, 0.00576
- GAGCGGGC — higher, -0.0816
- AGGATGAA — higher, -0.0513
- ATGGGCAC — higher, -0.072
- CTAGGACC — lower, -0.323
- AGTAGAGA — higher, -0.034
- CCCGCGTA — higher, -0.114
- CCCGACAA — higher, 0.173
- CTCGGTAC — higher, -0.0149
- TACCGGAA — higher, 0.409
- TGAGACCA — higher, -0.115
- ATCTGTTG — higher, -0.125
- AGCTGCGG — higher, -0.0822
- GCGCTATA — higher, -0.127
- CACGTTAA — higher, -0.03
- ACAGATCG — higher, -0.0453
